These results are taken from publication PMC11345769 (Journal of medicinal chemistry, 2024).

The nature of the data set: general procedure: Fmoc solid-phase peptide synthesis; 2-CTC resin (loading density 1.6 mmol/g); TBTU, HOAt, DIPEA. Conditions: whole synthesis.
For the substance H2N-Lys-(SiFA)SeFe-Gly-Asp-OH, the isolated yield is on record as 7.4%. The same measure for H2N-Glu-(SiFA)SeFe-Gly-Lys-OH: 10.1%. The same measure for H2N-Glu-(SiFA)SeFe-Gly-Tyr-OH: 12.8%; for H2N-Lys-(SiFA)SeFe-Gly-Tyr-OH: 12.6%. The same measure for H2N-Lys-(SiFA)SeFe-Gly-Lys-OH: 13.3%; for H2N-Glu-(SiFA)-SeFe-Gly-Asp-OH: 4.9%.
